Experimental data from PMC11003121.
No constants are given. Whether binding was seen depends on the method and setting. Binding seen in cells or lysates may run through a third protein. Some binding calls cover weakened binding; strength is not graded here.

By UniProt entry, the sequences of proteins in these tests, tags left out. Where a name states a change or a piece, a line headed by the entry shows the natural chain unless it says otherwise. Residues count along the entry.
UniProt Q9Z2L0: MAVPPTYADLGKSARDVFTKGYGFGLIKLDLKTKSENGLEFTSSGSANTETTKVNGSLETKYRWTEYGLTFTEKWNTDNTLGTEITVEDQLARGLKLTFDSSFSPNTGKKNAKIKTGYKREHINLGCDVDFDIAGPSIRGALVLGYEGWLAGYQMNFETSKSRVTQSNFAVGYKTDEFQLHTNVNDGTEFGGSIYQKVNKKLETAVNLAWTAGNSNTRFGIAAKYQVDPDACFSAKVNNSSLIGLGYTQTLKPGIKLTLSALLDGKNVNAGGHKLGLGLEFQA
UniProt P05370: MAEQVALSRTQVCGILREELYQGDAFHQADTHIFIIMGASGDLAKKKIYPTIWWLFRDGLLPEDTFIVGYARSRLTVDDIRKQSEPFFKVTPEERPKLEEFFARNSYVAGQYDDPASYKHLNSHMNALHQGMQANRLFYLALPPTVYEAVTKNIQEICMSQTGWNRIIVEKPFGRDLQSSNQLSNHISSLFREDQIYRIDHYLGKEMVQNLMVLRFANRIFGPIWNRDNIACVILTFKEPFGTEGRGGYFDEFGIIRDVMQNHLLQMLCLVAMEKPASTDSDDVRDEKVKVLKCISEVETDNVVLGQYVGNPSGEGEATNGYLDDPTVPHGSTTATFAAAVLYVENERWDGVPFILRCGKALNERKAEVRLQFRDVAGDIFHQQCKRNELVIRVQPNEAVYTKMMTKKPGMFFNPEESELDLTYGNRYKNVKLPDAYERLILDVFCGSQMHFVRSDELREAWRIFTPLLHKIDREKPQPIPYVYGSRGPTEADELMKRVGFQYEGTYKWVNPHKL
HA-G6PD-NTD (aa 1-210) expressed in VSMCs: residues 1-210 of P05370
UniProt P49950: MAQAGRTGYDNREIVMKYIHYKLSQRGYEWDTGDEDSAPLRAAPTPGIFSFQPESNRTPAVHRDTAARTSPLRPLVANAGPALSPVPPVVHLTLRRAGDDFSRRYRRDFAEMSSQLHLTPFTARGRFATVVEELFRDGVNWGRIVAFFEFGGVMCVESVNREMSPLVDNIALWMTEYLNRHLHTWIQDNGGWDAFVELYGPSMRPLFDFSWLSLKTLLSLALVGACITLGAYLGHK
UniProt Q63690: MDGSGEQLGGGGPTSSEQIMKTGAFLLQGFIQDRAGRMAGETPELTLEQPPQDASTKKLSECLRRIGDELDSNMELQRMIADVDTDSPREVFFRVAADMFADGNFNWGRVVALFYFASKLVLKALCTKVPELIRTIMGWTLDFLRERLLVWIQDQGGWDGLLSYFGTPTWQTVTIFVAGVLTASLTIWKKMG

Key:
[1] = target: Voltage-dependent anion-selective channel protein 1 (VDAC1), endogenous in rat VSMCs (rat (endogenous in primary VSMCs)) (UniProt Q9Z2L0); assay: co-IP; endogenous proteins in rat VSMC lysates (50 mM Tris-HCl pH 8.0, 150 mM NaCl, 0.1% SDS, 0.5% deoxycholate, 0.5% NP-40), specific antibodies and protein A/G-agarose, 4 °C; cells with or without PDGF-BB for 12 h, 6-AN, siG6PD or Ad-G6PD
GST-G6PD (rat) = GST-G6PD (rat) (UniProt P05370); assay: pull-down; recombinant GST-G6PD on glutathione-Sepharose 4B beads incubated with total lysate of HEK293A cells transfected with Flag-VDAC1, 4 °C overnight; blot with anti-G6PD and anti-VDAC1; only the target purified
[2] = target: HA-G6PD full length (pcDNA3.1-HA-G6PD) (rat) (UniProt P05370); assay: co-IP; HEK293A cells cotransfected with Flag-VDAC1 and HA-G6PD (FL, NTD or CTD); IP with anti-HA or anti-Flag, blot with anti-Flag or anti-HA
[3] = target: HA-G6PD-NTD (N-terminal domain, aa 1-210) (rat) (UniProt P05370); assay: as above
[4] = target: Glucose-6-phosphate dehydrogenase (G6PD), endogenous in rat VSMCs (rat (endogenous in primary VSMCs)) (UniProt P05370); assay: cross-linking; DSS 5 mM on suspended cells in 20 mM HEPES pH 8.0, 37 °C, 30 min, then Western blot; VSMCs with or without PDGF-BB for 12 h, siG6PD, 6AN, G6PD overexpression
[5] = target: Glucose-6-phosphate dehydrogenase (G6PD), endogenous in rat VSMCs (rat (endogenous in primary VSMCs)) (UniProt P05370); assay: co-IP; endogenous proteins in rat VSMC lysates (50 mM Tris-HCl pH 8.0, 150 mM NaCl, 0.1% SDS, 0.5% deoxycholate, 0.5% NP-40), specific antibodies and protein A/G-agarose, 4 °C; cells with or without PDGF-BB for 12 h, 6-AN, siG6PD or Ad-G6PD
[6] = target: HA-G6PD-NTD (aa 1-210) expressed in VSMCs (rat) (UniProt P05370); assay: co-IP; VSMCs transfected with HA-G6PD-FL, -NTD or -CTD; IP with anti-HA, blot with anti-VDAC1 (endogenous)
[7] = target: Glucose-6-phosphate dehydrogenase (G6PD), endogenous in rat VSMCs (rat (endogenous in primary VSMCs)) (UniProt P05370); assay: co-IP; endogenous proteins in rat VSMC lysates (50 mM Tris-HCl pH 8.0, 150 mM NaCl, 0.1% SDS, 0.5% deoxycholate, 0.5% NP-40), specific antibodies and protein A/G-agarose, 4 °C; cells with or without PDGF-BB for 12 h, 6-AN, siG6PD or Ad-G6PD; remark: listed apart in the source

## B-Cell Leukemia/Lymphoma 2 (Bcl-2), endogenous in rat VSMCs (from UniProt P49950 1-236)
[1]
  binding: binds

## Bcl-2-associated X protein (Bax), endogenous in rat VSMCs (from UniProt Q63690 1-192)
[1]
  binding: binds

## Flag-VDAC1 (pcDNA3.1-Flag-VDAC1) (from UniProt Q9Z2L0 1-283)
GST-G6PD (rat)
  binding: binds
[2]
  binding: binds
[3]
  binding: binds

## Glucose-6-phosphate dehydrogenase (G6PD), endogenous in rat VSMCs (from UniProt P05370 1-515) (enzyme)
[1]
  binding: binds
[4]
  binding: binds

## Voltage-dependent anion-selective channel protein 1 (VDAC1), endogenous in rat VSMCs (from UniProt Q9Z2L0 1-283)
[5]
  binding: binds
[6]
  binding: binds

B1: VDAC2, endogenous in rat VSMCs (protein, UniProt P81155 1-295)
chain: MAECCVPVCQRPICIPPPYADLGKAARDIFNKGFGFGLVKLDVKTKSCSGVEFSTSGSSNTDTGKVSGTLETKYKWCEYGLTFTEKWNTDNTLGTEIAIEDQICQGLKLTFDTTFSPNTGKKSGKIKSAYKRECINLGCDVDFDFAGPAIHGSAVFGYEGWLAGYQMTFDSAKSKLTRSNFAVGYRTGDFQLHTNVNNGTEFGGSIYQKVCEDFDTSVNLAWTSGTNCTRFGIAAKYQLDPTASISAKVNNSSLIGVGYTQTLRPGVKLTLSALVDGKSFNAGGHKLGLALELEA
[7]
  binding: binds

B2: VDAC3, endogenous in rat VSMCs (protein, UniProt Q9R1Z0 1-283)
chain: MCSTPTYCDLGKAAKDVFNKGYGFGMVKIDLKTKSCSGVEFSTSGHAYTDTGKASGNLETKYKVCNYGLIFTQKWNTDNTLGTEISWENKLAEGLKLTVDTIFVPNTGKKSGKLKASYRRDCFSVGSKVDIDFSGPTIYGWAVLAFEGWLAGYQMSFDTAKSKLCQNNFALGYKAEDFQLHTHVNDGTEFGGSIYQRVNEKIETSINLAWTAGSNNTRFGIAAKYRLDCRTSLSAKVNNASLIGLGYTQSLRPGVKLTLSALVDGKNFNAGGHKVGLGFELEA
[7]
  binding: binds
